Measurements published in PubChem BioAssay AID493014 (National Center for Advancing Translational Sciences (NCATS), 2011).
Screen size: about 340,000 compounds; about 170 (0.05%) were called active. The shares of active, inactive and inconclusive entries below differ from those in the screen. The call rests on the fitted dose curve; in most records, active means well fitted inhibition curve with a large enough effect in the signal ratio, with a control signal flat (not every such curve was filed as active); inconclusive means small, poorly fitted or top-dose-only effect, or effect the other way, or a change in a side signal; inactive means flat fitted curve, though single readings scatter; the % refers to the signal ratio. Potencies of inconclusive entries are doubtful fits and often do not repeat.
Potency means the concentration at half of the fitted maximal effect.

Assay: qHTS Assay to Find Inhibitors of Chronic Active B-Cell Receptor Signaling;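 on activity change, negative = inhibition: plate controls were basal doxycycline-induced cells for no effect and cells given 10 µM MG132 for full effect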
Settings: ABC-DLBCL IkBa-CBG/CBR reporter, luminescence ratio (green luciferase fused to IkBa over red control in TMD8 lymphoma cells), 4 h; activity change, negative = inhibition: at 46.1 µM (top of the series)
In short: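 Doxycycline induced both beetle luciferases in TMD8 lymphoma cells; IKK-driven degradation limits the IkappaBalpha-fused green signal, while red luminescence normalises for cell number and nonspecific effects. Compounds tested up to 46 uM, 4 hrs.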
In the case of `O=C1Nc2ccc(Br)cc2C1(O)Cc1ccccn1` (configuration not stated), the activity change, negative = inhibition is reported as inconclusive: 6.9%. For `CCC(Cc1ccccc1)NC(=O)CN1C(=O)CSc2ncccc21` (configuration not stated), the activity change, negative = inhibition was inconclusive: -0.491%. In the case of `CCC1SC(=NC(=O)c2ccc(Cl)c(Cl)c2)NC1=O` (configuration not stated), the Potency is reported as inconclusive: 29.1 µM [falling, single point]. In the case of `O=C(O)c1ccc(N/N=C/c2ccc3ncccc3c2)cc1`, the activity change, negative = inhibition is reported as inconclusive: 252%. For `O=C(Nc1cccnc1)c1cc(-c2ccccc2)on1`, the Potency was inconclusive: 25.9 µM [rising, single point]. In the case of `COc1cc(N)c(Cl)cc1NC(=O)c1ccccc1`, the “activity change, negative = inhibition” value is reported as inactive: -1.98%. For `O=[N+]([O-])c1ccc(O)c(Nc2ncnc3ccc(Br)cc23)c1`, the activity change, negative = inhibition was inconclusive: 14%. With `Cc1cc(N2CCN(C)CC2)nc2ccc(NC(=S)NCCCN3CCc4ccccc4C3)cc12` the “activity change, negative = inhibition” value was inactive: -1.63%. In the case of `CCc1cc(=O)oc2c3c(cc(OCC(=O)NCc4cccnc4)c12)OC(C)(C)CC3`, the activity change, negative = inhibition is reported as inconclusive: 19.5%. In the case of `Cc1cc(C)c(C)c(S(=O)(=O)N[C@@H](C)C(=O)OCC(=O)NC2CCCC(C)C2C)c1C` (some centres not stated), the activity change, negative = inhibition is reported as inconclusive: 3.53%. With `C[C@@H]1CN([C@H](C)CO)C(=O)c2cc(NS(=O)(=O)c3cn(C)cn3)ccc2O[C@@H]1CN(C)S(C)(=O)=O` the “activity change, negative = inhibition” value was inactive: 1.27%. In the case of `CCC1=C(OC(=O)N(CC)CC)N2C(=O)OC(=NCCc3c[nH]c4ccccc34)[C@]2(Cc2ccccc2)[C@H]2C1=CC[C@H]1C(=O)N(CC)C(=O)[C@H]12`, the activity change, negative = inhibition is reported as inconclusive: -4.11%. For `Cc1ccc(Cl)cc1N1CCN(C(=O)CNC(=O)c2ccc(Br)o2)CC1`, the activity change, negative = inhibition was inconclusive: -12.1%. In the case of `CCn1cc(CN2CCCC(CO)(Cc3cccc(Cl)c3)C2)cn1` (configuration not stated), the Potency is reported as inconclusive: 22.4 µM [falling, single point]. With `CC/C(=N\NC(=O)c1ccc(-c2ccccc2)cc1)C12CC3CC(CC(C3)C1)C2` the Potency was inconclusive: 7.31 µM [falling, partial curve]. With `Cn1c(SCC(=O)Nc2sccc2C(N)=O)nc2ccccc2c1=O` the activity change, negative = inhibition was inconclusive: 0.988%. In the case of `Cc1cccc(NC(=O)COc2ccc(-c3nn(C)c(=O)c4ccccc34)cc2)c1`, the “activity change, negative = inhibition” value is reported as inactive: -13.6%. With `O=C(CCNC(=O)Cn1ccc2ccccc2c1=O)NCc1ccc(F)cc1Cl` the “activity change, negative = inhibition” value was inactive: 0.246%. For `O=[N+]([O-])c1ccc(N=Nc2ccc(O)cc2O)cc1`, the Potency was inconclusive: 0.291 µM [rising, full curve, poor fit]. For `COc1c(Br)cc([N+](=O)[O-])c(OC)c1C(=O)NC(=O)Nc1cc(Cl)cc(Cl)c1`, the activity change, negative = inhibition was inconclusive: -0.129%. For `COc1ccccc1N/C(N)=N/c1nc(CSc2ccc(C)cc2)cc(=O)[nH]1`, the “activity change, negative = inhibition” value was inactive: -8.65%. In the case of `COc1cccc(CC(=O)N2CCN(S(=O)(=O)c3ccc(Br)cc3)CC2)c1`, the Potency is reported as inconclusive: 32.6 µM [rising, partial curve, poor fit]. With `CCC(C)NC(=O)COc1ccc(Br)c(C)c1` (configuration not stated) the activity change, negative = inhibition was inconclusive: -1.26%. In the case of `O=C(CC(=O)Nc1cccnc1)Nc1cccnc1`, the “activity change, negative = inhibition” value is reported as inactive: -0.0072%. In the case of `O=C(COC(=O)c1cnccn1)c1ccccc1`, the activity change, negative = inhibition is reported as inconclusive: -9.94%. With `C=C(C)CSc1nc2sc3c(c2c(=O)n1-c1ccc(C)cc1)CCN(C)C3` the “activity change, negative = inhibition” value was inactive: -4.34%. For `Cc1cccc(C(=O)Nc2cccc(S(=O)(=O)NCc3ccco3)c2)c1`, the activity change, negative = inhibition was inconclusive: 3.97%. For `Cc1ccccc1N(C(=O)CS(=O)CC(=O)Nc1ccc(F)cc1)C(C)C(=O)NC(C)(C)C` (configuration not stated), the “activity change, negative = inhibition” value was inactive: -2.56%. With `O=C(Nc1nc2ccccc2[nH]1)c1cccc(S(=O)(=O)N2CCOCC2)c1` the activity change, negative = inhibition was inconclusive: 1.03%. In the case of `CC1(C)CC(/C=C/c2ccccc2)=Nc2ccccc2N1`, the Potency is reported as inconclusive: 22.4 µM [falling, single point]. In the case of `CCCN1C(=O)/C(=C/c2ccc(C)s2)NC1=S`, the “activity change, negative = inhibition” value is reported as inactive: 1.56%. In the case of `C[n+]1cc(C(=O)N2CCCCC2)ccc1/C=C/c1c[nH]c2ccccc12`, the “activity change, negative = inhibition” value is reported as inactive: -6.72%. In the case of `COc1ccccc1-c1noc(CSc2nc(N)cc(=O)[nH]2)n1`, the activity change, negative = inhibition is reported as inconclusive: -22.7%. For `COc1cccc(NC(=O)CSc2nccn2C2CCCC2)c1`, the “activity change, negative = inhibition” value was inactive: 3.59%. In the case of `CN(C)S(=O)(=O)c1cccc(NC(=S)NCc2ccc3c(c2)OCO3)c1`, the Potency is reported as inconclusive: 35.5 µM [falling, single point]. With `Cc1cccn2c(=O)c(C(=O)NCCc3ccccc3)cnc12` the Potency was inconclusive: 31.6 µM [rising, single point]. With `O=C(CCn1nnc(-c2cccs2)n1)N1CCc2ccccc2C1` the activity change, negative = inhibition was inconclusive: 23.5%. In the case of `Cc1c(Br)c([N+](=O)[O-])nn1C(C)C(=O)N1CCc2ccccc2C1` (configuration not stated), the activity change, negative = inhibition is reported as inconclusive: 7.96%. In the case of `C#CCNC(=O)C1=C[C@@H](c2coc3ccccc3c2=O)[C@H](CCCO)[C@@H](OCC)O1`, the activity change, negative = inhibition is reported as inconclusive: -1.58%. With `COc1cccc(CC(=O)N2CCCC(CCC(=O)N3CCN(c4ccccn4)CC3)C2)c1` (configuration not stated) the activity change, negative = inhibition was inconclusive: -7.97%. For `CCn1c2ccccc2c2cc(NS(=O)(=O)c3ccccc3C)ccc21`, the “activity change, negative = inhibition” value was inactive: 8.34%. With `Cc1cccc(CN2C[C@]34CC[C@@H](C[C@@H]3S2(=O)=O)O4)c1` the activity change, negative = inhibition was inconclusive: 8.72%. For `CCOc1nc(C#N)nc(N2CCCCC2)n1`, the Potency was inconclusive: 20.6 µM [falling, partial curve]. For `Cc1ccc(S(=O)(=O)/N=C2\C=C(Nc3ccc(O)cc3)C(=O)c3ccccc32)cc1`, the Potency was inconclusive: 0.731 µM [falling, partial curve, poor fit]. With `CCOC(=O)C1CCCN(C(=O)c2sc3nc4n(c(=O)c3c2C)CCC4)C1` (configuration not stated) the activity change, negative = inhibition was inconclusive: -0.0178%. In the case of `CCc1ccc(OCCCCCn2ccnc2)cc1`, the “activity change, negative = inhibition” value is reported as inactive: 7.02%. In the case of `O=C(NCCN1C(=O)S/C(=C\c2ccc(Cl)c(Cl)c2)C1=O)c1ccc2c(c1)C(=O)N(Cc1ccncc1)C2=O`, the activity change, negative = inhibition is reported as inconclusive: 1.09%. For `CN(Cc1ccccc1)C(=O)c1cnc2n(c1=O)CCS2`, the “activity change, negative = inhibition” value was inactive: -1.46%. With `CC(=O)Nc1ccc(SCCN2CC[C@@H](C)CCC2=O)cc1` the activity change, negative = inhibition was inconclusive: 0.326%. With `COC(=O)CSc1cc(C(F)(F)F)nc(-c2ccccn2)n1` the “activity change, negative = inhibition” value was inactive: -3.42%. For `O=C1OCc2cc(NC(=O)C3COc4ccccc4O3)ccc21` (configuration not stated), the activity change, negative = inhibition was inconclusive: 5.56%. With `Cc1ccc(SCC(=O)OC(C)C(=O)NCc2ccccc2)cc1C` (configuration not stated) the activity change, negative = inhibition was inconclusive: 10.9%. For `COCc1cc(C)nc(SCc2ccc(F)cc2)c1C#N`, the activity change, negative = inhibition was inconclusive: 0.596%. With `C(=C\c1nc(-c2ccccc2)no1)/c1ccccc1` the Potency was inconclusive: 5.8 µM [falling, partial curve]. In the case of `Cc1ccsc1/C=C1\CCc2ccccc2C1=O`, the “activity change, negative = inhibition” value is reported as inactive: -29.4%. In the case of `COc1ccc(S(=O)(=O)Nc2ccc3c(c2)OCO3)cc1`, the “activity change, negative = inhibition” value is reported as inactive: 0.655%. With `O=C(NNC(=O)c1cc([N+](=O)[O-])ccc1Cl)c1cccs1` the Potency was inconclusive: 23.1 µM [falling, single point]. In the case of `COc1ccccc1CNC(=O)c1ccc(-c2ccccc2Cl)o1`, the Potency is reported as inconclusive: 25.9 µM [falling, partial curve, poor fit]. With `CNC(=O)c1cc2c(ccc3ccccc32)oc1=N` the Potency was inconclusive: 7.31 µM [rising, partial curve, poor fit]. In the case of `CC(NC(=O)CSc1cccc(C(F)(F)F)c1)c1ccccc1` (configuration not stated), the activity change, negative = inhibition is reported as inconclusive: 5.05%. For `O=C(c1ccc(Br)cc1)C(CN1CCOCC1)c1ccccc1` (configuration not stated), the activity change, negative = inhibition was inconclusive: 10.5%. For `Cc1ccc(S(=O)(=O)Oc2ccccc2/C=N/NC(N)=S)cc1`, the Potency was inconclusive: 13 µM [falling, partial curve, poor fit]. In the case of `CCOc1ccccc1NC(=O)/C=C/C(N)=O`, the Potency is reported as inconclusive: 29.1 µM [rising, single point]. In the case of `CC(=O)C1=C(C)OC(N)=C(C#N)C1c1ccncc1` (configuration not stated), the “activity change, negative = inhibition” value is reported as inactive: 5.08%. For `Cc1ccccc1CC1S/C(=N/N=C/c2ccco2)NC1=O` (configuration not stated), the activity change, negative = inhibition was inconclusive: 12.7%. For `CSc1ncccc1C(=O)OCC(=O)N(C)c1c(N)n(Cc2ccccc2)c(=O)[nH]c1=O`, the activity change, negative = inhibition was inconclusive: 15.1%. In the case of `CC(C)C(=O)Nc1nnc(SCC(=O)NC2CCCC2)s1`, the “activity change, negative = inhibition” value is reported as inactive: -2.48%. With `COc1ccccc1C(=O)Nc1ccc2c(c1)n(C)c(=O)n2C` the activity change, negative = inhibition was inconclusive: -16.4%. For `CC(C)(C)C(=O)/C=C(N)/C=C/c1ccccc1`, the activity change, negative = inhibition was inconclusive: 4.89%. In the case of `Cc1cccc(NC(=O)c2cccc3c2C(=O)c2ccccc2-3)c1`, the activity change, negative = inhibition is reported as inconclusive: 10.3%. For `COc1ccc(C(=O)Nc2cccc(C(=O)NCc3ccccc3)c2)cc1`, the “activity change, negative = inhibition” value was inactive: 0.561%. For `O=C(c1cccc(S(=O)(=O)N2CCOCC2)c1)N(Cc1ccc(F)cc1)Cc1ccco1`, the “activity change, negative = inhibition” value was inactive: -0.431%. In the case of `C[C@@H](NC(=O)OC(C)(C)C)c1nnc(S(=O)(=O)Cc2ccccc2)o1`, the activity change, negative = inhibition is reported as inconclusive: 28.8%. With `O=C(CCc1ccccc1)Nc1c(F)c(F)c(F)c(F)c1F` the activity change, negative = inhibition was inconclusive: 3.43%. In the case of `Cc1ccc(SCCNC(=O)/C=C/c2ccccc2Cl)cc1`, the activity change, negative = inhibition is reported as inconclusive: 3.75%. With `Cc1cccc2cc(C#N)c(NCCCn3ccnc3)nc12` the activity change, negative = inhibition was inconclusive: 1.85%. With `CN(CCCNC(=O)CCCOc1cc(=O)n(C)c2ccccc12)Cc1ccccc1` the activity change, negative = inhibition was inconclusive: -25.2%. With `Cc1cccc(C(=O)N2CCC(=O)N(C(COCc3cccc(Cl)c3)Cc3ccccc3)CC2)c1` (configuration not stated) the activity change, negative = inhibition was inconclusive: -15%. In the case of `Cc1ccc(NC(=O)C2CCCCC2C(=O)O)cc1Cl` (configuration not stated), the Potency is reported as inconclusive: 14.1 µM [rising, partial curve, poor fit]. For `Cc1cc(C(=O)N/N=C\c2cc(C(C)(C)C)c(O)c(C(C)(C)C)c2)n[nH]1`, the Potency was inconclusive: 12.6 µM [falling, partial curve, poor fit]. In the case of `CC1CCCN(C(=O)CSc2cnc3ccccc3n2)C1` (configuration not stated), the Potency is reported as inconclusive: 1.64 µM [rising, partial curve, poor fit]. For `C=CCc1c(C)nc(-c2ccccc2)nc1N/N=C/c1ccccc1`, the Potency was inconclusive: 0.0326 µM [rising, full curve].
